The results in this text go back to patent US20110294982A1 (Ablynx, published 2011).

By UniProt entry, the sequences of proteins in these tests, tags left out.
UniProt P05556: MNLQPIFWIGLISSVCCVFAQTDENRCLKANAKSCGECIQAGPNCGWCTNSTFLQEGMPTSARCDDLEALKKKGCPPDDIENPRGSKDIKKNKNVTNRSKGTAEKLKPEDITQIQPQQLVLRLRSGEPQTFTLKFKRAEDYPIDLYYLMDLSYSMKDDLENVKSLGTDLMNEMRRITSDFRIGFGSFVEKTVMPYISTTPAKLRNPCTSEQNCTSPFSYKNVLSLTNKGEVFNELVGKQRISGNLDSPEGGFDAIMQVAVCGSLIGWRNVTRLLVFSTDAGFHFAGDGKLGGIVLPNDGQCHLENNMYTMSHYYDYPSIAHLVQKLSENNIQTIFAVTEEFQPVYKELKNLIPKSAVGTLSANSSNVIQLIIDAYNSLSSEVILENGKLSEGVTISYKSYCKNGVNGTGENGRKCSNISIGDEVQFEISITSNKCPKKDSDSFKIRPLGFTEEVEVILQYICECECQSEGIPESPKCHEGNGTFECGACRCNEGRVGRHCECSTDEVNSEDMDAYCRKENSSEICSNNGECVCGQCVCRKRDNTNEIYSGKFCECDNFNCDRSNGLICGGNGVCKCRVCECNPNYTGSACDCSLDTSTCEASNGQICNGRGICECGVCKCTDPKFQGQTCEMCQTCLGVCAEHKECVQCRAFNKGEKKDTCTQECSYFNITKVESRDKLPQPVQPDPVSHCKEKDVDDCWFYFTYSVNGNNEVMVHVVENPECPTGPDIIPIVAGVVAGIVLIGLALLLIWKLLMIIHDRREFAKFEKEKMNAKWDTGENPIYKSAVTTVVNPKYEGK

The labels stand for the following.
T1: Human alphaL (human) (UniProt P20701)
T1 sequence (looked up): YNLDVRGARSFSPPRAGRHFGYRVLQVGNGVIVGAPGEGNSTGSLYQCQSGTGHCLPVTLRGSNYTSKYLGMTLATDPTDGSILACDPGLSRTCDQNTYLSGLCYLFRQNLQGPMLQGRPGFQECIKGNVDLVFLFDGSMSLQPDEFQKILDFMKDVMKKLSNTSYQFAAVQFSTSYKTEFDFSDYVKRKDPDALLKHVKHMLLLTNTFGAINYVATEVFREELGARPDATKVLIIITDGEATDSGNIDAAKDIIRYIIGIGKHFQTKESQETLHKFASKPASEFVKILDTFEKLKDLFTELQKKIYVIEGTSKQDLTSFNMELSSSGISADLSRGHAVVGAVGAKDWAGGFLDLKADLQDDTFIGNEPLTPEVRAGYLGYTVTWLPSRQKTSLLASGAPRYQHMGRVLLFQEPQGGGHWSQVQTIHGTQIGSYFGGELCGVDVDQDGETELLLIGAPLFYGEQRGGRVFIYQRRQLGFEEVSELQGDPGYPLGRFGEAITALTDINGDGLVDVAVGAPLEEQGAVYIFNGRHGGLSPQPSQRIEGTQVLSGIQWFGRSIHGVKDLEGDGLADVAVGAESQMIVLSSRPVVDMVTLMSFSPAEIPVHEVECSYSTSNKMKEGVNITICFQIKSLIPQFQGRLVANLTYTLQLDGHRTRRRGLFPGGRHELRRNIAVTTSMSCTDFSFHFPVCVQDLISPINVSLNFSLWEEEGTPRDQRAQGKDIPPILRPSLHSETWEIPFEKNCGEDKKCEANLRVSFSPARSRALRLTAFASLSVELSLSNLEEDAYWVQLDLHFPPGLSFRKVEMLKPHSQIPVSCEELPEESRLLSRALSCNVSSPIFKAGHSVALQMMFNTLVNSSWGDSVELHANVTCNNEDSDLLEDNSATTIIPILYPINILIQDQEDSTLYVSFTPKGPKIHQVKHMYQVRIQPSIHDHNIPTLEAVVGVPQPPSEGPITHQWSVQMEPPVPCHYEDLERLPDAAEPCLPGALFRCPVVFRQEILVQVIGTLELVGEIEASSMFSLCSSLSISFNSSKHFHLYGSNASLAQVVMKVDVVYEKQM

B1: 141-A10 (VHH)
VHH: EVQLVESGGGLVQAGGSLRLSCAASGRTISRFTMGWFRQGPGKERDFVAAISWGGGRTNYEDSVKGRFTISRDNAQNTVYLQMNSLKPEDTAVYYCAABSRGPYNSNWHQSSVSYDYWGQGTQVTVSS
B2: 141-C11 (VHH)
VHH: EVQLVESGGGLVQAGDSLRLSCAASGRTISRFTMGWFRQAPGKERDFVAAISWGGGRTNYEDSVKGRFTISRDNAQNTVYLQMNSLKPEDTAVYYCAADTRGPYNSNWAQSSVSYDGWGQGTQVTVSS
B3: 142-C7 (VHH)
VHH: EVQLVESGGGLVQAGGSLRLSCAASGRTISRFTMGWFRQAPGKERDFVAAISWGGGRTNYEDSVKGRFTISRDNAQNTVYLQMNSLKPEDTAVYYCAABTRGPYNSNWHQSSVSYDAWGQGTQVTVSS
B4: 141-E10 (VHH)
VHH: EVQLVESGGGLVQAGGSLRLSCAASGRTISRFTMGWFRQAPGKEREFVAAISWGGGRTNYEDSVKGRFTISRDNAQNTVYLQMNSLKPEDTAVYYCAABTRGPYNSNWAQSSVSYDYWGQGTQVTVSS
B5: 141-C10 (VHH)
VHH: EVQLVESGGGLVQAGGSLRLSCAASGRTISRFTMGWFRQAPGKERDFVAAISWGGGRTNYEDSVKGRFTISRDNAQNTVYLQMNSLKPEDTAVYYCAABTRGPYNSNWAQSSVSYDGWGQGTQVTVSS
B6: 141-A11 (VHH)
VHH: EVQLVESGGGLVQAGGSLRLSCAASGRTISRFTMGWFRQAPGKERDFVAAISWGGGRTNYEDSVKGRFTISRDNAQNTVYLQMNSLKPEDTAVYYCAADTRGPYNSNWAQSSVSYDTWGQGTQVTVSS
B7: 142-B10 (VHH)
VHH: EVQLVESGGGLVPAGGSLRLSCAASGRAISRFTMGWFRQAPGKERDFVAAISWGGGRTDYEDSVKGRFTISRDNARNTVYLQMNSLKPEDTAVYYCAABTRGPYNSNWAQSSVSYNYWGQGTQVTVSS
B8: 141-F10 (VHH)
VHH: EVQLVESGGGLVQAGGSLRLSCAASGRTISRFTMGWFRQAPGKERDFVAAISWGGGRTNYEDSVKGRFTISRDNAQNTVYLQMNSLKPEDTAVYYCAABSRGPYNSNWHQSSVSYDYWGQGTQVTVSS
B9: 242-E8 (VHH)
VHH: EVQLVESGGGLVQAGGSLRLSCAASGRTISRFTMGWFRQAPGKERDFVAAISWGGGRTNYEDSVKGRFTISRDNAQNTVYLQMNSLKPEDTAVYYCAADTRGPYNSNWAQSSVSYDGWGQGTQVTVSS
B10: 248-F7 (VHH)
VHH: EVQLVESGGGLVQAGGSLRLSCAASGSGFNIVNAGWYRQGPEKQRELVARITSGGTTNYAESVKGRFTISRDNAKNTVYLQMNSLKPEDTAVYSCNARVIAPGRLDDIWGQGTQVTVSS
B11: 138-B10 (VHH)
VHH: EVQLVESGGGLVQAGGSLRLSCAASGFTADDYAIGWFRQAPGKEREGVSCISSSDGSTFYADSVKGRFTISSDNAKNTVYLQMNSLKPEDTAVYYCAADPRFEPTLLCTDYDYEDYWGQGTQVTVSS
B12: 138-D7 (VHH)
VHH: EVQLVESGGGLVQAGGSLRLSCAASGFTFDDYAIGWFRQAPGKEREGVSCISSSDGYTYYADSVKDRFTISSDDAKNTVYLQMNSLKPEDTAVYYCAATPRRFGWCSDYBEYDYWGQGTQVTVSS
B13: 138-H7 (VHH)
VHH: EVQLVESGGGLVQAGGSLRLSCAASGFTFDDYAIGWFRQAPGKEREGVSCISSSDGYSFYANSVKGRFTISSDNAKNTVYLQMNSLKPEDTAVYYCAATPRRFGWCSDYDEYDYWGQGTQVTVSS
B14: 235-B7 (VHH)
VHH: EVQLVESGGGLVRAGGSLRLSCTASGNILNIASMGWYRQAPGKQRTWVARIRSDGTTSYQDAVKGRFTIAKDNAKNAGYLQMDNLKPEDTAVYYCNAAGSTIDGGFSSWGPGTQVTVSS
B15: 248-F2 (VHH)
VHH: EVQLVESGGGLVRAGGSLRLSCTASGNILNIASMGWYRQALGKQRTWVARIRSDGTTSYQDAVKGRFTIAKDNAKNAGYLQMDNLKPEDTAVYYCNAAGSTIDGGFSSWGPGTQVTVSS
B16: 235-A12 (VHH)
VHH: EVQLVESGGGLVQSGGSLRLSCAASGSIVGISDMRWYRQAPGNQRELAASISRGGSTNYGDFVKGRFTISRDNAKNTVSLQMSSLEPEDTAVYYCNAAVAAGTVGAYTLRNYWGQGTQVTVSS
B17: 248-B7 (VHH)
VHH: KVQLVESGGGLVQAGGSLRLTCAASGSILSVSTMTWYRQVLGTQRELVASITRSGGSNYADPVKGRFTIARDNAKNTMYLQMNSLKPEDTAIYYCNAVIASNSGRSYDLRNYWGQGTQVTVSS
B18: 138-G4 (VHH)
VHH: EVQLVESGGGLVQAGGSLRLSCAASGFTFDDYAIGWFRQAPGKEREGVSCISSSHGSTFYADSVKDRFTISSDNAKNTVYLQMNSLKPEDTAVYYCAAALGGGSSWCTTYEYDAWGQGTQVTVSS
B19: 248-A1 (VHH)
VHH: EVQLVESGGGLVQPGGSLRLSCTASGSVFSIGNMGWYRQAPGKQRELVATITQAGSPNYSQSAKGRFTISRDVPKNTVSLQMNSLKPEDTAVYYCNGNIVTYDRGRTTVKNYWGQGTQVTVSS
B20: 235-F3 (VHH)
VHH: EVQLVESGGGLVQAGGSLTLSCALSGGSSSIANSAWYRQAPGNQRELVARITSNDNTYYADSVKGRLTISKDNAKNTASLQMNSLKPEDTAVYYCFVRTVGTGSLFDYWGQGTQVTVSS
B21: 248-F1 (VHH)
VHH: EVQLVESGGGLVQAGGSLTLSCALSGGSSSIANSAWYRQAPGNQRELVARITSNDNTYYADSVKGRFTISKDNAKNTASLQMNSLKPEDTAVYYCFVRTVGTGSLFDYWGQGTQVTVSS
B22: 248-G2 (VHH)
VHH: EVQPVESGGGLVQAGGSLTLSCALSGGSSSIANSAWYRQAPGNQRELVARITSNDNTYYADSVKGRFTISKDNAKNTASLQMNSLKPEDTAVYYCFVRTVGTGSLFDYWGQGTQVTVSS
B23: 248-D7 (VHH)
VHH: EVQLVESGGGLVQPGGSLRLSCAASGFAFSSYAMSWVRQAPGKGVEWVSAINSGGGSTSYLNSVKGRFTISRDDAKNTLYLQMNSLKPEDTAVYYCAKPIYYSPNTYPPTSRYDYRGQGTQVTVSS
B24: 248-E8 (VHH)
VHH: EVQLVESGGGLVQPGGSLRLSCAASGFAFSSYVMTWVRQAPGKGLEWVSSITSGGGYTSYVNSVKGRFTISRDDAKNTLYLQMNSLKPEDTAVYYCAKPTFYSPNMYPPTSRYDYRGQGTQVTVSS
B25: 236-B4 (VHH)
VHH: KVQLVESGGGLVQPGGSLRLSCAASGFAFSSYVMTWVRQAPGKGLEWVSSITSGGGYTSYLNSVKGRFTISRDDAKNTLYLQMNSLKPEDTAVYYCAKPTFYSPNMYPPTSRYDYRGQGTQVTVSS
B26: 248-C8 (VHH)
VHH: EVQLVESGGGLVQAGGSLRLSCAASGFTLDAYAIGWFRQAPGKEREGVSCISSSDGSTFYADSVKDRFTISSDNAKNTVYLQMNSLKPEDTAVYYCAADRRGKSEMYCTDYSYSDAWGQGTQVTVSS

These are yes or no findings as the source states them, for the method shown. Some binding calls cover weakened binding; strength is not graded here.

One experiment addresses Human beta1 (human) (UniProt P05556). The experiment in a line: specificity ELISA on coated integrins, periplasmic extract. In general terms: ELISA stands for enzyme-linked immunosorbent assay.
As for B1, the binding result is “binds”.
Same read-out and setting: the same measure for B2: “binds”; for B3: “binds”; for B4: “binds”.
Turning to B5, the binding entry was “binds”.
On the same count and under the same terms, the same measure for B6: “binds”; for B7: “binds”.
For the molecule B8, the binding result was “binds”.
The same measure, in the same setting: the same measure for B9: “binds”.

The next experiment has as its target T1, Human alphaL (human). The experiment is described as above.
For the molecule B10, the binding entry is listed as “binds”.
The same measure, in the same setting: the same measure for B11: “binds”; for B12: “binds”; for B13: “binds”.
Still for that read-out and setting: the same measure for B14: “binds”.
Still for that read-out and setting: the same measure for B15: “binds”; for B16: “binds”.
For the molecule B17, the binding entry was “binds”.
On the same count and under the same terms, the same measure for B18: “binds”; for B19: “binds”; for B20: “binds”.
Still for that read-out and setting: the same measure for B21: “binds”.
The same measure, in the same setting: the same measure for B22: “binds”; for B23: “binds”.
With B24, the binding result is on record as “binds”.
With B25, the binding entry was “binds”.
Same read-out and setting: the same measure for B26: “binds”.
